Assay results: the supplement of paper PMC10689618
The list shows a part of the results. Many values rest on one well or one pass, so single values are uncertain.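 Labelled rat cortical synaptosomes were engulfed by primary human fetal astrocytes. Engulfment equaled a red/green ratio, corrected for calcein live-cell signal and normalized to the plate median. Compounds were toxic when calcein dropped over 30%, and reduced phagocytosis when below 70% of the median above 5 µM.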

Assays:
Human fetal astrocytes [1] = assay: loss of total cells relative to no-compound high-control median (toxicity); higher = more toxic (fewer cells); conditions: 24 h
Human fetal astrocytes [2] = assay: synaptosome phagocytosis (pHrodo/calcein intensity ratio) relative to plate median of data wells; higher = more phagocytosis; conditions: 24 h

Row | SMILES | loss of total cells (Human fetal astrocytes [1]; 1.39 µM) [%] | loss of total cells (Human fetal astrocytes [1]; 2.78 µM) [%] | loss of total cells (Human fetal astrocytes [1]; 5.56 µM) [%] | loss of total cells (Human fetal astrocytes [1]; 11.11 µM) [%] | loss of total cells (Human fetal astrocytes [1]; 22.22 µM) [%] | synaptosome phagocytosis (Human fetal astrocytes [2]; 1.39 µM) [%] | synaptosome phagocytosis (Human fetal astrocytes [2]; 2.78 µM) [%] | synaptosome phagocytosis (Human fetal astrocytes [2]; 5.56 µM) [%] | synaptosome phagocytosis (Human fetal astrocytes [2]; 11.11 µM) [%] | synaptosome phagocytosis (Human fetal astrocytes [2]; 22.22 µM) [%]
1 | O=C1C[C@@H]2OCC=C3CN4CC[C@]56c7ccccc7N1[C@H]5[C@H]2[C@H]3C[C@H]46 | 11 | -18 | -9.1 | 12.4 | -1.5 | 85.6 | 87.9 | 85.1 | 104 | 103
2 | C[C@@H]1O[C@@H](O[C@H]2C[C@@H](O)[C@]3(CO)[C@H]4[C@H](O)C[C@]5(C)[C@@H](C6=CC(=O)OC6)CC[C@]5(O)[C@@H]4CC[C@]3(O)C2)[C@H](O)[C@H](O)[C@H]1O | 38.9 | 20 | 9.8 | 45.8 | 31.3 | 92.1 | 52.9 | 39.9 | 25.8 | 32
3 | CN(C)Cc1c[nH]c2ccccc12 | 3.2 | 20.6 | 21.7 | 20.5 | 20.5 | 78.7 | 80.8 | 125 | 108 | 96.2
4 | CCC(N)C(O)c1ccc(O)c(O)c1 (stereo not given) | -12.9 | 24.6 | -4.3 | 52.8 | 29 | 84.3 | 107 | 73 | 141 | 113
5 | COc1cc2c(c(OC)c1OC)-c1ccc(O)c(=O)cc1[C@@H](N)CC2 | 1.8 | -4 | 7.2 | -10.5 | 15.2 | 105 | 88 | 102 | 108 | 101
6 | S=C=NCc1ccccc1 | 20.6 | 17.7 | -47.1 | 13.8 | -16.7 | 127 | 151 | 0 | 125 | 136
7 | C=C(C)[C@H]1Cc2c(ccc3c(=O)c4c(oc23)COc2cc(OC)c(OC)cc2-4)O1 | 36.6 | -12.6 | 19.1 | 46.5 | 13 | 115 | 79.8 | 77.8 | 117 | 137
8 | COc1cc2c(cc1OC)[C@@H]1C(=O)c3ccc4oc(C(C)C)cc4c3O[C@@H]1CO2 | -7.6 | 17.9 | 6.1 | 9.7 | 18.1 | 83.7 | 110 | 96.3 | 70.9 | 28.4
9 | c1ccc(/N=N/c2ccccc2)cc1 | 6.1 | 0.4 | 10.1 | 12.1 | 0 | 99.9 | 77.2 | 59.7 | 116 | 88.1
10 | CC1=NCCc2c1[nH]c1cc(O)ccc21 | 12.6 | 14.8 | 13 | 7.1 | 30.3 | 113 | 121 | 110 | 107 | 96.4
11 | CC(=O)Nc1cc([As](=O)(O)O)ccc1O | -6.2 | -35.6 | -22.3 | 11.8 | 27.1 | 120 | 103 | 114 | 108 | 114
12 | C=C[C@H]1CN2CC[C@H]1C[C@H]2[C@H](OC(=O)OCC)c1ccnc2ccc(OC)cc12 | 15.5 | 6.9 | 2.9 | 6.3 | 15.9 | 91.3 | 83 | 87.7 | 127 | 105
13 | CC(C)(N)Cc1ccccc1 | -43.5 | -18.3 | 9.3 | 47.5 | 1.6 | 77.7 | 98.6 | 126 | 132 | 89.2
14 | CC(C)=CCCC1(C)C=Cc2c(O)c3c(c(CC=C(C)C)c2O1)OC12C(CC4CC1C(C)(C)OC2(C/C=C(/C)C(=O)O)C4O)C3=O (stereo not given) | 33.6 | 21.3 | 26.1 | 20.5 | 20.5 | 129 | 113 | 89.3 | 100 | 81.9
15 | COc1ccc2c(c1)[nH]c1c(C)nccc12 | 16.2 | 14.8 | 8 | 7.9 | 20.5 | 109 | 137 | 111 | 72.3 | 94.3
16 | COC(C)(C)CCC[C@H](C)C/C=C/C(C)=C/C(=O)OC(C)C | 22.7 | 17 | 8 | 13.8 | 19.7 | 124 | 140 | 94 | 96.3 | 112
17 | COC(=O)[C@@H]1C[C@H](OC(C)=O)C(=O)[C@H]2[C@@]1(C)CC[C@H]1C(=O)O[C@H](c3ccoc3)C[C@]21C | 2.5 | 6.1 | -13.9 | 11.5 | -0.7 | 93.8 | 127 | 101 | 88.6 | 87.9
18 | CN(C)C(=S)SSC(=S)N(C)C [Thiram Thiram Tuex TMTD TNTD TUEX Heryl Tmtds Tuads Tutan] | 5.6 | -37.3 | 19.3 | 23.3 | 40.2 | 54 | 31.2 | 38.8 | 37.6 | 50.5
19 | N[C@H](CO)Cc1ccccc1 | -0.8 | -6.9 | 5.1 | 0.7 | -0.7 | 78.4 | 138 | 124 | 94.2 | 128
20 | COC(=O)[C@]1(C)CC[C@]2(C)CC[C@]3(C)C4=CC=C5C(=CC(=O)C(O)=C5C)[C@]4(C)CC[C@@]3(C)[C@@H]2C1 | 9.7 | 58.1 | 68.8 | 104 | 103 | 98.3 | 21.3 | 0 | 0 | 0
21 | Cc1cc2c(C(C)C)c(O)c(O)c(C=O)c2c(O)c1-c1c(C)cc2c(C(C)C)c(O)c(O)c(C=O)c2c1O | -18.9 | -6.1 | -2.2 | 19.6 | 22.2 | 105 | 124 | 97.4 | 71.9 | 75.3

Row | SMILES | loss of total cells (Human fetal astrocytes [1]; 1.39 µM) [%] | loss of total cells (Human fetal astrocytes [1]; 2.78 µM) [%] | loss of total cells (Human fetal astrocytes [1]; 5.56 µM) [%] | loss of total cells (Human fetal astrocytes [1]; 11.11 µM) [%] | loss of total cells (Human fetal astrocytes [1]; 22.22 µM) [%] | synaptosome phagocytosis (Human fetal astrocytes [2]; 1.39 µM) [%] | synaptosome phagocytosis (Human fetal astrocytes [2]; 2.78 µM) [%] | synaptosome phagocytosis (Human fetal astrocytes [2]; 5.56 µM) [%] | synaptosome phagocytosis (Human fetal astrocytes [2]; 11.11 µM) [%] | synaptosome phagocytosis (Human fetal astrocytes [2]; 22.22 µM) [%]
22 | COc1cc2occc2c2oc(=O)ccc12 | -0.4 | 18.6 | 1.5 | 46.5 | -13.7 | 91.5 | 135 | 80.9 | 113 | 96
23 | Cc1cc(OC(=O)N2CCCCC2)c(C(C)C)cc1[N+](C)(C)C | 9 | -4 | 13.9 | 12.2 | 8.1 | 103 | 88.2 | 96.3 | 118 | 55.6
24 | CC[C@H]1[C@@H]2C[C@H]3[C@@H]4N(C)c5ccccc5[C@]45C[C@@H]([C@@H]2[C@H]5O)N3[C@@H]1O | 7.6 | 20.6 | 10.1 | 17.2 | 17.4 | 94.4 | 131 | 95 | 80.1 | 69.9
25 | CN[C@@H](C)[C@@H](O)c1ccccc1 | 2.7 | -4.4 | -28.6 | -2 | 20.4 | 92.4 | 84.1 | 110 | 114 | 95.4
26 | O=[N+]([O-])O[C@H]1CO[C@H]2[C@@H]1OC[C@H]2O[N+](=O)[O-] | 25.2 | 10.5 | 3.5 | 0.3 | 2.7 | 37.4 | 39.3 | 42.7 | 32.9 | 36
27 | CC(C)=CCCC1(C)C=Cc2c(O)c3c(c(CC=C(C)C)c2O1)OC12C(=CC4CC1C(C)(C)OC2(C/C=C(/C)C(=O)O)C4O)C3=O (stereo not given) | -3.2 | 25.6 | 18.8 | 44.8 | 42.4 | 108 | 83.2 | 24.8 | 13.3 | 0
28 | c1ccc2c(c1)sc1ccccc12 | 13.9 | -31.5 | -3.5 | 1.4 | 17.9 | 110 | 112 | 141 | 93.6 | 80.6
29 | C[C@]12CC[C@@H](O)C[C@@H]1CC[C@@H]1[C@@H]2CC[C@]2(C)C(=O)CC[C@@H]12 | -9 | 9 | 11 | 8.8 | 13.3 | 120 | 107 | 93 | 70 | 103
30 | C[C@@H]1C[C@@H]([C@H](O)CC2CC(=O)NC(=O)C2)C(=O)[C@@H](C)C1 | -25.8 | -23 | -8.7 | -5.6 | 12.1 | 107 | 83.6 | 58.9 | 57.6 | 64.3
31 | O=C1CCCN1CC#CCN1CCCC1 | -24.6 | 11.9 | 17.6 | 2.7 | 6.7 | 99.7 | 129 | 140 | 86.3 | 104
32 | CC(=O)C1CCC2C3CCC4C[C@H](O)CCC4(C)C3C[C@H](O)C12C (stereo partly drawn) [DIHYDROXY (3alpha,12alpha)PREGNAN-20-ONE] | -6.2 | -4.7 | 35.1 | 14.2 | 11.5 | 86.5 | 99.5 | 94.6 | 112 | 115
33 | C=C(C)[C@H]1CN[C@H](C(=O)O)[C@H]1CC(=O)O | 19.9 | 18.4 | 5.8 | -15.5 | 21.2 | 144 | 120 | 115 | 95.6 | 102
34 | C=C1C[C@@H]2[C@H](CC[C@]3(C)C(=O)CC[C@@H]23)[C@@]2(C)C=CC(=O)C=C12 | -24.2 | -41.3 | 8.1 | -4.9 | -17.8 | 101 | 77.8 | 135 | 71.7 | 86.9
35 | COc1cc2c(cc1OC)[C@@H]1C(=O)c3ccc4c(c3O[C@@H]1CO2)CC(C(C)C)O4 (stereo not given in full) | 37.2 | 37.2 | 25.4 | 26.4 | 50.8 | 77.7 | 55.5 | 94.2 | 86.7 | 107
36 | COc1ccc(CCN2CCC(Nc3nc4ccccc4n3Cc3ccc(F)cc3)CC2)cc1 | -14.9 | 12 | -0.8 | 54.2 | 81.9 | 86.3 | 85.9 | 54.2 | 19.8 | 0
37 | CN(C)[C@@H]1C(=O)C(C(N)=O)=C(O)[C@@]2(O)C(=O)C3=C(O)c4c(O)cccc4[C@@](C)(O)[C@H]3C[C@@H]12 | -11 | -16.6 | -2.1 | 1.4 | -12.5 | 93.5 | 74.5 | 91.1 | 99.8 | 100
38 | CC(C)N(CCC(C(N)=O)(c1ccccc1)c1ccccn1)C(C)C (stereo not given) [Disopyramide] | 8.6 | -22 | 7.7 | -10.1 | 52 | 90.1 | 95.1 | 87.4 | 116 | 121
39 | CN1C[C@H](CNC(=O)OCc2ccccc2)C[C@@H]2c3cccc4c3c(cn4C)C[C@H]21 | 9.7 | 19.9 | 7.2 | -6.3 | 14.4 | 95.2 | 126 | 110 | 62.5 | 87.8
40 | CNc1ccccc1C(=O)O | -27.9 | -17 | 0.7 | 10.8 | 17.8 | 100 | 109 | 96.8 | 123 | 131
41 | COC1=CC(=O)O[C@@H](/C=C/c2ccccc2)C1 | 27.1 | 18.4 | 9.4 | 1.3 | 23.5 | 52.6 | 146 | 104 | 70.8 | 126

Single values from the results shown:
Entry of CC(=O)C1CCC2C3CCC4C[C@H](O)CCC4(C)C3C[C@H](O)C12C (stereo partly drawn) [DIHYDROXY (3alpha,12alpha)PREGNAN-20-ONE] under synaptosome phagocytosis (Human fetal astrocytes [2]; 1.39 µM) [%]: 86.5
Entry of CCC(N)C(O)c1ccc(O)c(O)c1 (stereo not given) under loss of total cells (Human fetal astrocytes [1]; 5.56 µM) [%]: -4.3
Entry of N[C@H](CO)Cc1ccccc1 under synaptosome phagocytosis (Human fetal astrocytes [2]; 22.22 µM) [%]: 128
